{"source": "patent US20240383856A1", "about": "(Zedira GmbH, priority 2021, published 2024)", "note": "The name of at least one read-out is uncertain."}
{"experiment": "Single-dose oral pharmacokinetic profile in mice", "format": "in vivo", "conditions": "male C57BL/6 mice, single oral dose 200 mg/kg", "experimental": "Presumed from promising Papp values (permeability coefficients, see below), the 5 inventors had proven the oral bioavailability of the inhibitors of the present application by the representative compounds II-3, II-15, and II-28. For this selected set of representative compounds, pharmacokinetic profiles were determined in male C57BL/6 mice (N=3, each). Briefly, the compounds were administered as single-dose soluble, oral formulation [20 mg/ml in PBS/(2—Hydroxypropyl)-β-cyclodextrin formulation] at 200 mg/kg. Plasma samples were taken at (0, 0.25, 0.5, 1, 2, 4, and 6 hours) and analyzed by LC-MS to determine the concentration of the representative compounds.", "units": {"Vd/F": "mL/min/kg"}}
{"compound": "CNC(=O)C(=O)CC[C@H](NC(=O)c1oc2ccccc2c1C)C(=O)Nc1cccn(CC(=O)NC2C3CC4CC(C3)CC2C4)c1=O", "note": "(stereo partly drawn) [II-3, (S)-N1-(1-(2-(2-adamantylamino)-2-oxoethyl)-2-oxo-1,2-dihydropyridin-3-yl)-N6-methyl-2-(3-methylbenzofuran-2-carboxamido)-5-oxohexanediamide]", "Vd/F": 272}
{"compound": "CNC(=O)C(=O)CC[C@H](NC(=O)c1sc(C(F)(F)F)nc1C)C(=O)Nc1cccn(CC(=O)NC2C3CC4CC(C3)CC2C4)c1=O", "note": "(stereo partly drawn) [II-15, (S)-N1-(1-(2-(2-adamantylamino)-2-oxoethyl)-2-oxo-1,2-dihydropyridin-3-yl)-N6-methyl-2-(4-methyl-2-(trifluoromethyl)thiazole-5-carboxamido)-5-oxohexanediamide]", "Vd/F": 125}
{"compound": "CNC(=O)C(=O)CC[C@H](NC(=O)c1cc(Cl)sc1Cl)C(=O)Nc1cccn(CC(=O)NC2C3CC4CC(C3)CC2C4)c1=O", "note": "(stereo partly drawn) [II-28, (S)-2-(2,5-dichlorothiophene-3-carboxamido)-N1-(1-(2-(2-adamantylamino)-2-oxoethyl)-2-oxo-1,2-dihydropyridin-3-yl)-N6-methyl-5-oxohexanediamide]", "Vd/F": 397}
